Values of other authors as cited in patent US20200261427A1 (Al Therapeutics, Inc., priority 2019, published 2020).

Conditions: cited from earlier work

CO[C@H]1C[C@@H]2CC[C@@H](C)[C@@](O)(O2)C(=O)C(=O)N2CCCC[C@H]2C(=O)O[C@H]([C@H](C)C[C@@H]2CC[C@@H](O)[C@H](OC)C2)CC(=O)[C@H](C)/C=C(\C)[C@@H](O)[C@@H](OC)C(=O)[C@H](C)C[C@H](C)/C=C/C=C/C=C/1C [Rapamycin, rapamycin]
solubility in benzyl alcohol, chloroform, acetone, and acetonitrile: freely soluble
